This note sets out measurements from paper PMC8505418.

The target in data set [1] is GST-Ku70 SS77/78DD S77D,S78D (human) (UniProt P12956). In words: EMSA. The settings on record: 1 mM Mg2+, poly[d-(I-C)] competitor; 40 ug GST-fusion protein, 0.8 ng probe, 25 uL; 10 mM Tris-HCl pH 7.5, 50 mM NaCl, 1 mM MgCl2, 0.5 mM DTT, 4% glycerol, 1 ug poly[d-(I-C)], 0.1 ug poly-L-lysine; recombinant protein; residues 2-609; protein details: N-terminal GST (pGEX-6P-1); label: digoxigenin (DIG Gel Shift Kit). A general note: Mobility shift assays separate free from complexed probe on a gel.

Data set [2] deals with GST-Ku70 SS77/78EE S77E,S78E (human) (UniProt P12956). In words: EMSA. Particulars: 1 mM Mg2+, poly[d-(I-C)] competitor; 40 ug GST-fusion protein, 0.8 ng probe, 25 uL; 10 mM Tris-HCl pH 7.5, 50 mM NaCl, 1 mM MgCl2, 0.5 mM DTT, 4% glycerol, 1 ug poly[d-(I-C)], 0.1 ug poly-L-lysine; recombinant protein; residues 2-609; protein details: N-terminal GST (pGEX-6P-1); label: digoxigenin (DIG Gel Shift Kit).

Construct, isoform or probe ends are uncertain for at least one entry. A weaker result is weaker than the reference pair of the same experiment. At least one verdict rests on a figure or table, not on a statement of the authors.

“TAGAGACGGGGTTTCACCGTGTTACCAGG / GATCTAACACACGGTGAAACCCCGTCTCTATGC [DIG-labeled DSB probe]”: the binding result in data set [1] and in data set [2] was “binds more weakly” each time.
